Experimental findings from publication doi:10.1101/860833 are described below.

In the assay the target is HSPA14 (human) (UniProt Q0VDF9). Kind of assay: co-IP.

No constants are given. Whether binding was seen depends on the method and setting. Binding seen in cells or lysates may run through a third protein. Some binding calls cover weakened binding; strength is not graded here.

B1: HSPA14 (protein, UniProt Q0VDF9 1-509)
chain: MAAIGVHLGCTSACVAVYKDGRAGVVANDAGDRVTPAVVAYSENEEIVGLAAKQSRIRNISNTVMKVKQILGRSSSDPQAQKYIAESKCLVIEKNGKLRYEIDTGEETKFVNPEDVARLIFSKMKETAHSVLGSDANDVVITVPFDFGEKQKNALGEAARAAGFNVLRLIHEPSAALLAYGIGQDSPTGKSNILVFKLGGTSLSLSVMEVNSGIYRVLSTNTDDNIGGAHFTETLAQYLASEFQRSFKHDVRGNARAMMKLTNSAEVAKHSLSTLGSANCFLDSLYEGQDFDCNVSRARFELLCSPLFNKCIEAIRGLLDQNGFTADDINKVVLCGGSSRIPKLQQLIKDLFPAVELLNSIPPDEVIPIGAAIEAGILIGKENLLVEDSLMIECSARDILVKGVDESGASRFTVLFPSGTPLPARRQHTLQAPGSISSVCLELYESDGKNSAKEETKFAQVVLQDLDKKENGLRDILAVLTMKRDGSLHVTCTDQETGKCEAISIEIAS
B1: the binding result is reported as “binds”.
